Data as given in the supplement of paper PMC12067093, “Discovery and optimisation of a covalent ligand for TRIM25 and its application to targeted protein ubiquitination” (Chemical Science, 2025).
The other results are listed elsewhere or left out.

By UniProt entry, the sequences of proteins in these tests, tags left out. Where a name states a change or a piece, a line headed by the entry shows the natural chain unless it says otherwise.
UniProt Q9Y6M9, whole entry: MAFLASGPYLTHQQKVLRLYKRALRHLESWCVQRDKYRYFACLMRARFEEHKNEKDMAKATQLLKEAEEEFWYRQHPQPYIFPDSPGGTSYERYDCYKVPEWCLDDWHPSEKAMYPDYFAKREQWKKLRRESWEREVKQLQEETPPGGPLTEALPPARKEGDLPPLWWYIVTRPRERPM
UniProt Q9BYG3: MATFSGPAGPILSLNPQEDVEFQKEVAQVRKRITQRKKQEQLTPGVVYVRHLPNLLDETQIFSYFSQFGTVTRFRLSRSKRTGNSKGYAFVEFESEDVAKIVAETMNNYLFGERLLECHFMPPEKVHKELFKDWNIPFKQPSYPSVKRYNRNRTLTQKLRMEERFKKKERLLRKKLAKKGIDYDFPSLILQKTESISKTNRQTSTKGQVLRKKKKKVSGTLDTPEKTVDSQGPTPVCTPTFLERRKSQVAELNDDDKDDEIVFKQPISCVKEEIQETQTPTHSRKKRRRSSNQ
UniProt Q7Z628: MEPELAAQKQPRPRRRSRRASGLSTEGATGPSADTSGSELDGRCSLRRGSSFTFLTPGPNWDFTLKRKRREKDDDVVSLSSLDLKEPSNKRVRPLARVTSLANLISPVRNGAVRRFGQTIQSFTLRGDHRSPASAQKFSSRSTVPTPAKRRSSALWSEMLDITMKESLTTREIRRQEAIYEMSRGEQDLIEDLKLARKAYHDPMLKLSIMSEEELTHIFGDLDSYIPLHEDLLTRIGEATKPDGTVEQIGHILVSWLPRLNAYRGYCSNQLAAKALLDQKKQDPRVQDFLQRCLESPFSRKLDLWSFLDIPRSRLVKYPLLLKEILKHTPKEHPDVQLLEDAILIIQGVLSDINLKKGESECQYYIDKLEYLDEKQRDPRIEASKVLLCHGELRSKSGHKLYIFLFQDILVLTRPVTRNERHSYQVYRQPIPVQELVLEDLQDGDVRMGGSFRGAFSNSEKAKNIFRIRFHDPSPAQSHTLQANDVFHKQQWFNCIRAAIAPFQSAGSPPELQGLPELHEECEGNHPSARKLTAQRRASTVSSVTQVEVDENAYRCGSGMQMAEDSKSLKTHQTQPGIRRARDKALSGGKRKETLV
UniProt Q9Y618, whole entry, looked up: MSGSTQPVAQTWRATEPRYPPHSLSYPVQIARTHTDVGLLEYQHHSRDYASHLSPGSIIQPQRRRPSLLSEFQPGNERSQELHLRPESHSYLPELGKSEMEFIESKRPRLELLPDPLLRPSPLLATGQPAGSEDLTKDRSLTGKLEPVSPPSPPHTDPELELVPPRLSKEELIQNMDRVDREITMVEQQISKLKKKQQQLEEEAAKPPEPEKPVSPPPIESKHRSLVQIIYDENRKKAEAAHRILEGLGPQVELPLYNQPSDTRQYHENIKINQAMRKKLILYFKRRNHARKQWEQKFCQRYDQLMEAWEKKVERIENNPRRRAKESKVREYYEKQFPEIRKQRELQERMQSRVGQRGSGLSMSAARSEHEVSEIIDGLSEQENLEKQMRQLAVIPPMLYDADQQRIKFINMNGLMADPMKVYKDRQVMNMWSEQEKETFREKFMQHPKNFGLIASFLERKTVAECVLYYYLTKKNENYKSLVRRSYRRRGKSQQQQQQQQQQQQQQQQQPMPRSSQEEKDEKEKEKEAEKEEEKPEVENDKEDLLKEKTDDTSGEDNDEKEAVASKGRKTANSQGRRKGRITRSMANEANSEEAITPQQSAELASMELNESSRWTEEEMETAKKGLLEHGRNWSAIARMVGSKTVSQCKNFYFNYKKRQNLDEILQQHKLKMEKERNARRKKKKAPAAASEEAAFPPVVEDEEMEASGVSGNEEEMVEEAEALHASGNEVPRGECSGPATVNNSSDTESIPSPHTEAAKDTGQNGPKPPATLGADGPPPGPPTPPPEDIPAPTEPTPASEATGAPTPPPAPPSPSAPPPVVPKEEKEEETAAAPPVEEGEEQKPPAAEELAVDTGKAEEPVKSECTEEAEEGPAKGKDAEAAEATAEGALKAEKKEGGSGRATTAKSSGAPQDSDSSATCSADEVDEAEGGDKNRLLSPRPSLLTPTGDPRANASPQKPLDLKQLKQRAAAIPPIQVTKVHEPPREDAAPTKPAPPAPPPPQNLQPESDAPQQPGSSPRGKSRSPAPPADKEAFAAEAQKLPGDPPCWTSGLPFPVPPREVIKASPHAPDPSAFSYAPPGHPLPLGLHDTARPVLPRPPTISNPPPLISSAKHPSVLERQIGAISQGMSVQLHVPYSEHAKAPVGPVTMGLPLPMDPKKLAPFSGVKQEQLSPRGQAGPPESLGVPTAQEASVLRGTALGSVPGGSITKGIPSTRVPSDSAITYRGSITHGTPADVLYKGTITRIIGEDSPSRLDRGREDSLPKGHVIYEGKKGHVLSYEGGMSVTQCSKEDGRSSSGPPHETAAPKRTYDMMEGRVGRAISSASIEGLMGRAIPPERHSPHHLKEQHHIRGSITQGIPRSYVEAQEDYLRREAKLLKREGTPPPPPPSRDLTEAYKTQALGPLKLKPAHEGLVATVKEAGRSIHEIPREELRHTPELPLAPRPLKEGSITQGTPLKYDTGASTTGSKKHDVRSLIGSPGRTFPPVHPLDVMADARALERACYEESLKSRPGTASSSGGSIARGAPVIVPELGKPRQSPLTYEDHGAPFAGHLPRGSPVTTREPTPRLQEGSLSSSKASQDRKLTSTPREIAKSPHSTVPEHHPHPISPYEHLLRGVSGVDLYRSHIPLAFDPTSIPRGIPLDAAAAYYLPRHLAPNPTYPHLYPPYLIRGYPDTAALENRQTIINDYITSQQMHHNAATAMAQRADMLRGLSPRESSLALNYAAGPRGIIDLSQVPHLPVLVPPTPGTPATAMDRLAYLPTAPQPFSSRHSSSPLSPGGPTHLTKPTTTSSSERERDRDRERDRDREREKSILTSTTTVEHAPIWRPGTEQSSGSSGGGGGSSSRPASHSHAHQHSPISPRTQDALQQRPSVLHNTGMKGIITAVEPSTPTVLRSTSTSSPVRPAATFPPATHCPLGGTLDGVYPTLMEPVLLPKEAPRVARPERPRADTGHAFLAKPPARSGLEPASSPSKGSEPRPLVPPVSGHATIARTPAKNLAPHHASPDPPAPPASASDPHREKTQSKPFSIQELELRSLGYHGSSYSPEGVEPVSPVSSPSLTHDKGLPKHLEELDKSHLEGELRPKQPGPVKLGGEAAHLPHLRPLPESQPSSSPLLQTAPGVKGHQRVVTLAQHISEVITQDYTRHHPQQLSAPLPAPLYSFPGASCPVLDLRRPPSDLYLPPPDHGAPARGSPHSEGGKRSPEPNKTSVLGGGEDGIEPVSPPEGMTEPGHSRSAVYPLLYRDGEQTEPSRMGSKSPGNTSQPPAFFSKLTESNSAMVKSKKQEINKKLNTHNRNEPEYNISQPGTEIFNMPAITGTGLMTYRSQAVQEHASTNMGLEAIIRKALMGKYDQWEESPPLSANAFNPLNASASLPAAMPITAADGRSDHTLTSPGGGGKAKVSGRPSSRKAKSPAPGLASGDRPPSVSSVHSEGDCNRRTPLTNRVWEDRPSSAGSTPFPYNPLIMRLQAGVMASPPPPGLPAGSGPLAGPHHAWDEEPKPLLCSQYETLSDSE
UniProt Q9H3P2, whole entry, looked up: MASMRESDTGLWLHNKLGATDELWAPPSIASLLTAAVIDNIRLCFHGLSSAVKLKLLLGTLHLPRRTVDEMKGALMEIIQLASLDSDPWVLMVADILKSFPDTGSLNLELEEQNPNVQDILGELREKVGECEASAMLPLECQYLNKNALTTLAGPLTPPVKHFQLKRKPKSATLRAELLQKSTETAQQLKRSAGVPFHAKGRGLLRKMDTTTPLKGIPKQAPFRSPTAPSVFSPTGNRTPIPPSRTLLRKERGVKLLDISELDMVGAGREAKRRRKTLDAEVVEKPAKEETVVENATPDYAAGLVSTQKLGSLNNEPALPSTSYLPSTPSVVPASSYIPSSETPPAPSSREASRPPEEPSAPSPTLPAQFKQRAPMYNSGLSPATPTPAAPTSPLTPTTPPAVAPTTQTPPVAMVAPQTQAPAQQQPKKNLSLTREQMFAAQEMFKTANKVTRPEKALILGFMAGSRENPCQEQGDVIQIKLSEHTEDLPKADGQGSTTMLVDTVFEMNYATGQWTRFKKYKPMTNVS
UniProt Q9UGV2: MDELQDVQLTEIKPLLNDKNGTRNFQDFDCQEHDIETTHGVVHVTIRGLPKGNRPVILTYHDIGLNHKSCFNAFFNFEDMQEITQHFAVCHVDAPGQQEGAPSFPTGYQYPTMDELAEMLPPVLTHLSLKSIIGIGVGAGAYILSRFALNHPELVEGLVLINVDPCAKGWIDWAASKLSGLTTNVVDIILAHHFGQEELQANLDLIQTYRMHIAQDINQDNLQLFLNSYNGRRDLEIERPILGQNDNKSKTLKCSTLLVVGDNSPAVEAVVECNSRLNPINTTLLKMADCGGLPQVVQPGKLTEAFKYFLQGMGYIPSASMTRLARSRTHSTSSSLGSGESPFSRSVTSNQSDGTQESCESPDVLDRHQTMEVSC
UniProt Q8IXH7, whole entry, looked up: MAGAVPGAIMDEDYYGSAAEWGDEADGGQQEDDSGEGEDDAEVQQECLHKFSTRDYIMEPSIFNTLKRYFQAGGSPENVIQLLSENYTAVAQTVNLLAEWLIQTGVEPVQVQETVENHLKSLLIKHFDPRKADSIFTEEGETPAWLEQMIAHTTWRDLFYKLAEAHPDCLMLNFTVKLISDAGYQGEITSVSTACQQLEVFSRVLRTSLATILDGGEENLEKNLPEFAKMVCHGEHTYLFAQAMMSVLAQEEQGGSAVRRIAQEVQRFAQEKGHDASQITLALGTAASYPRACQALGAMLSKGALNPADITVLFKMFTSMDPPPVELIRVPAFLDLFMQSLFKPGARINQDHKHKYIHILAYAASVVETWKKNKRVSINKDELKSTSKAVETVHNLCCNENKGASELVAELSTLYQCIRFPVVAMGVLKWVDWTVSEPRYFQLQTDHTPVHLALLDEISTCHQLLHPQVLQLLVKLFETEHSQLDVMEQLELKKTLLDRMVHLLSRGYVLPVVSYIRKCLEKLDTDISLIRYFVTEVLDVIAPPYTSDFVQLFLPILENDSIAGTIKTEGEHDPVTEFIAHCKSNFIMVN
UniProt Q00653: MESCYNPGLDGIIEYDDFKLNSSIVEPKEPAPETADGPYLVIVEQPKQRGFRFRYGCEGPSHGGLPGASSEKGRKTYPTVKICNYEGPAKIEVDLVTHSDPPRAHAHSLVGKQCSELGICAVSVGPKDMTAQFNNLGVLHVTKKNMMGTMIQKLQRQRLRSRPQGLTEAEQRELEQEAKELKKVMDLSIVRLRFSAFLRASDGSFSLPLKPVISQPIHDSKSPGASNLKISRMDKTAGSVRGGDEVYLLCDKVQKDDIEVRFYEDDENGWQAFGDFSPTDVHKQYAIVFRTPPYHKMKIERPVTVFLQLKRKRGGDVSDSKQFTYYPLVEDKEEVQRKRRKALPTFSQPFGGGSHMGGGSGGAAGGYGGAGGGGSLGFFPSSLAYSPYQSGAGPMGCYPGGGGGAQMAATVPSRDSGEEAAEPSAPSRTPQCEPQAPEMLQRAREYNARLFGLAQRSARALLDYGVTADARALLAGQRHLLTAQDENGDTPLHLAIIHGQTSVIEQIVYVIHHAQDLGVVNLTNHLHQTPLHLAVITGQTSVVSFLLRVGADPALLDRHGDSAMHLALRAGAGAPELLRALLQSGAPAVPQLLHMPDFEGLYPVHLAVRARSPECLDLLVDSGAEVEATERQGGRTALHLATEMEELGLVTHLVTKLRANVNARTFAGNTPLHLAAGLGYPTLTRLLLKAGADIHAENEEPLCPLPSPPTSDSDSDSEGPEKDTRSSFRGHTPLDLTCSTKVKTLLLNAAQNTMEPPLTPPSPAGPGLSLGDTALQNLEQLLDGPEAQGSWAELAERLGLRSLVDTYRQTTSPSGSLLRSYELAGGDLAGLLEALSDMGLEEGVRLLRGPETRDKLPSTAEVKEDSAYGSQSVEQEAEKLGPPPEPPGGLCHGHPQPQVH
UniProt P08651, whole entry, looked up: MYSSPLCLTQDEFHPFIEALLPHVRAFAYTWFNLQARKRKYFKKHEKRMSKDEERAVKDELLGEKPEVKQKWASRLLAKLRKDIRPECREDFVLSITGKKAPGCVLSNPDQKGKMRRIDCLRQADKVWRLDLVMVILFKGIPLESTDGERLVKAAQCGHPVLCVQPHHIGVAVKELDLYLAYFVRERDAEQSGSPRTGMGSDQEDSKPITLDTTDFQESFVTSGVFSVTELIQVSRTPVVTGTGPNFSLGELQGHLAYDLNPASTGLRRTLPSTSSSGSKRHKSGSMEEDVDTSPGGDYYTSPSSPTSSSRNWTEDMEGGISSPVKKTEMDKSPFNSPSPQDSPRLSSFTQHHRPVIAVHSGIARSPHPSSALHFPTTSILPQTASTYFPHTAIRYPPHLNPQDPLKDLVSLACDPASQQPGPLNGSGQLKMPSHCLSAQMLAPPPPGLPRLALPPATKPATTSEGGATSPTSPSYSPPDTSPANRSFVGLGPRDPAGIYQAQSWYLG

Compound: CC1Cc2ccccc2N1C(=O)C1CCCN(C1)C(=O)CCl (mixture of isomers) [TRIM25 ligand 11 (diastereomer mixture)]
Assay: probe-labelled cysteine peptide fold change vs DMSO (competition) (log2 fold change); higher = less target engagement (more negative = stronger competition)
Details: THP-1, incubation time: 4 h
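Further: competitive chemoproteomic profiling in live THP-1 cells with an iodoacetamide desthiobiotin (IA-DTB) probe, comparing probe-labelled peptide intensities in compound-treated cells against DMSO-treated controls.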

Row | Target | probe-labelled cysteine peptide fold change (10 µM) | probe-labelled cysteine peptide fold change (50 µM)
1 | NID1_P14543_679_EGSPDALQNPCYIGTHGCDTNAACRPGPR (UniProt P14543) | 0.112 | -0.182
2 | NDUFS1_P28331_75_LSVAGNCR (UniProt P28331) | 0.0407 | 0.114
3 | NDUFB9_Q9Y6M9_103_VPEWCLDDWHPSEK (UniProt Q9Y6M9) | 0.267 | 0.0236
4 | NIFK_Q9BYG3_118_LLECHFMPPEK (UniProt Q9BYG3) | -0.0703 | -0.00224
5 | NET1_Q7Z628_267_GYCSNQLAAK (UniProt Q7Z628) | 0.0505 | 0.103
6 | NGLY1_Q96IV0_283+286_EVEDHYCDACQFSNR (UniProt Q96IV0) | 0.263 | -0.144
7 | NCOR2_Q9Y618_466_TVAECVLYYYLTK (UniProt Q9Y618) | -0.0974 | 0.221
8 | NDUFV1_P49821_286_LFNISGHVNHPCTVEEEMSVPLK (UniProt P49821) | 0.121 | -0.203
9 | NELFA_Q9H3P2_471_ENPCQEQGDVIQIK (UniProt Q9H3P2) | 0.138 | -0.15
10 | NDRG3_Q9UGV2_359_SVTSNQSDGTQESCESPDVLDR (UniProt Q9UGV2) | 0.0132 | 0.0069
11 | NELFCD_Q8IXH7_397_AVETVHNLCCNENK (UniProt Q8IXH7) | 0.12 | -0.0115
12 | NFKB2_Q00653_250_GGDEVYLLCDK (UniProt Q00653) | 0.0534 | 0.0128
13 | NFX1_Q12986_730_CEEPCHR (UniProt Q12986) | 0.0901 | 0.247
14 | NDOR1_Q9UHB4_486_VAQGQTGNFLFFGCR (UniProt Q9UHB4) | -0.0422 | -0.0102
15 | NHP2_Q9NX24_142_PHEEYQEAYDECLEEVQSLPLPL (UniProt Q9NX24) | 0.181 | 0.075
16 | NELFCD_Q8IXH7_293_ACQALGAMLSK (UniProt Q8IXH7) | -0.011 | -0.0645
17 | NDUFB11_Q9NX14_141_EANGLPIMESNCFDPSK (UniProt Q9NX14) | -0.025 | -0.175
18 | NFKBIB_Q15653_135_GHTALHLACR (UniProt Q15653) | 0.0835 | 0.216

Shown as a markdown table: entries from further up.

| Row | Target | probe-labelled cysteine peptide fold change (10 µM) | probe-labelled cysteine peptide fold change (50 µM) |
| --- | --- | --- | --- |
| 3 | NDUFB9_Q9Y6M9_103_VPEWCLDDWHPSEK (UniProt Q9Y6M9) | 0.267 | 0.0236 |
| 4 | NIFK_Q9BYG3_118_LLECHFMPPEK (UniProt Q9BYG3) | -0.0703 | -0.00224 |
| 5 | NET1_Q7Z628_267_GYCSNQLAAK (UniProt Q7Z628) | 0.0505 | 0.103 |
| 6 | NGLY1_Q96IV0_283+286_EVEDHYCDACQFSNR (UniProt Q96IV0) | 0.263 | -0.144 |
| 7 | NCOR2_Q9Y618_466_TVAECVLYYYLTK (UniProt Q9Y618) | -0.0974 | 0.221 |
| 8 | NDUFV1_P49821_286_LFNISGHVNHPCTVEEEMSVPLK (UniProt P49821) | 0.121 | -0.203 |
| 9 | NELFA_Q9H3P2_471_ENPCQEQGDVIQIK (UniProt Q9H3P2) | 0.138 | -0.15 |
| 10 | NDRG3_Q9UGV2_359_SVTSNQSDGTQESCESPDVLDR (UniProt Q9UGV2) | 0.0132 | 0.0069 |
| 11 | NELFCD_Q8IXH7_397_AVETVHNLCCNENK (UniProt Q8IXH7) | 0.12 | -0.0115 |
| 12 | NFKB2_Q00653_250_GGDEVYLLCDK (UniProt Q00653) | 0.0534 | 0.0128 |
| 13 | NFX1_Q12986_730_CEEPCHR (UniProt Q12986) | 0.0901 | 0.247 |

The listing continues.

Row | Target | probe-labelled cysteine peptide fold change (10 µM) | probe-labelled cysteine peptide fold change (50 µM)
19 | NELFCD_Q8IXH7_398_AVETVHNLCCNENK (UniProt Q8IXH7) | 0.00283 | 0.0285
20 | NDUFV1_P49821_425_QIEGHTICALGDGAAWPVQGLIR (UniProt P49821) | -0.401 | 0.306
21 | NDRG3_Q9UGV2_166_FALNHPELVEGLVLINVDPCAK (UniProt Q9UGV2) | 0.0797 | 0.193
22 | NISCH_Q9Y2I1_185_TDLGHILDFTCR (UniProt Q9Y2I1) | -0.0479 | -0.0955
23 | NFX1_Q12986_778_VHECDHPVYHSCHSEEK (UniProt Q12986) | 0.0918 | -0.0905
24 | NCDN_Q9UBB6_98_EAPDGCPDHVLR (UniProt Q9UBB6) | -0.0446 | 0.0475
25 | NDUFS6_O75380_112_TGTCGYCGLQFR (UniProt O75380) | -0.267 | -0.229
26 | NDUFA8_P51970_46_EFMLCR (UniProt P51970) | -0.0141 | 0.185
27 | NDUFAF4_Q9P032_87_AAETCQEPK (UniProt Q9P032) | -0.0492 | -0.243
28 | NIF3L1_Q9GZT8_148_GLGACTSRPIHPSK (UniProt Q9GZT8) | 0.0755 | -0.156
29 | NISCH_Q9Y2I1_935_GTHNCR (UniProt Q9Y2I1) | -0.0567 | -0.177
30 | NFATC3_Q12968_6_TTANCGAHDELDFK (UniProt Q12968) | -0.143 | -0.131
31 | NDUFA8_P51970_36_AAAHHYGAQCDK (UniProt P51970) | 0.0907 | 0.233
32 | NFIC_P08651_157_AAQCGHPVLCVQPHHIGVAVK (UniProt P08651) | -0.0931 | -0.0631
33 | NFIC_P08651_88_DIRPECR (UniProt P08651) | 0.178 | 0.113
34 | NGLY1_Q96IV0_352_WLHCDACEDVCDKPLLYEIGWGK (UniProt Q96IV0) | 0.151 | 0.264
35 | NHLRC2_Q8NBF2_716_AILFSQPLQITDTQQGCIAPVELR (UniProt Q8NBF2) | -0.131 | -0.194
